The values below come from PMC6385987.

This test deals with T1, Flag-tagged SMN (Drosophila survival motor neuron protein) (Drosophila melanogaster) (UniProt Q9VV74).
T1 sequence: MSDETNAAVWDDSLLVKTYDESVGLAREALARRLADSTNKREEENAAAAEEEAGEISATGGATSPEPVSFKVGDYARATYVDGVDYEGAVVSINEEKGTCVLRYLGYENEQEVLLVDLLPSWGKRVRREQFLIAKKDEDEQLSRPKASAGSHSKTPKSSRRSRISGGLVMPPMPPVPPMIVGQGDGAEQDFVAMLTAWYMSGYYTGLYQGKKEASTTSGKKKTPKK
Briefly: affinity purification with mass spectrometry; 0-12h embryo lysates of Flag-SMN flies and Oregon-R control on anti-FLAG M2 affinity gel, 2h at 4C; six washes with 100-250 mM KCl; eluted with 3XFLAG peptide; label-free mass spectrometry (Orbitrap Velos).

No constants are given. Whether binding was seen depends on the method and setting. In cells and extracts the contact can be indirect. Here binding means that the protein was enriched with, or labelled near, the bait; the list need not be complete. A no says only that the protein was not detected with the bait. Sequences can lack the tags named with a protein.

As to Gemin2 (Drosophila), the binding result is “binds”.

B1: Gemin5/Rig (Drosophila rigor mortis) (protein, UniProt Q86BY9 1-1235)
chain: MNSQVMYHNVPTPPGNVSLAAAAPDGGLLYAGIRCINYISAPPANGEQPQVVTMSTRINILALDVSPMWGLGNGGPTKPFAIVGDDLSVQVWDCALGEAVIGHKAHQHQHEARDVRVVHHTTNSVLMSYLANGNILSMDASDLVIYCVASNTYCRRSTFISPRNHQLTMVRCSPYNDNLFAVGTAMGNVLVCDLRKMNIVYKFHGHKAPICGLAWREVPAAEDEKTNNLALSAEEWRSRNGGQEEKPKTKPPPLTKSKAAESDDPFDIYNFDHLEYEFGAPIAERRRKSSEDCGGEFVGLEKPAGAAVLDFVEACESVKAELLASRQEDKTQHVEVTLHDCEPTKPTGPLSDASTISNKNDASDSTEGSLEVIQYSSSSDDAVIVDGEAAKPKREVLHHIYHQAEVHASGTPQTKSEPQSNLQVVPAISAETISLTSVNSTHLETLLVSIDGDEVMMIWNTNTGAHAGKNYSKSKTAGKLNNVYWLNNHVIVSLSRHQLFFWSVEFERKMLRYKISKDKSHSCHLQDIVSFACDSSKEMIWLCRNNRQIGMMNPKTGRMADFYGTVAFGVRAMAECPDDMNKIALGCSDRRVAFFDISKLTTSCLPIDSVYVSSNVYCLAWSPNCLELAFGTFDGTVGILDVERMKVKTHLRTPHKKEVYSLVWQDHFIYFIVNRVLGFFDLRKSKIEPTIVNCISRPSYLSIRDSFLFVGTDDGLLQIHERDSGMEKSWSPFIRQSALFARYVTDIAWCPLDSNKFAVSGNDRSVYVMEFQPTERNWKTLHTFTANTEKASITSMRWSHTQKHLLLTFHIEGKVCLWNCNAPEKPPLTITYHCPMWCGMFLPTNENIIMCSGKALSVELIDIKDALEGDEKSICPKVDALLNVKWASKSLTQPYAPVLTAAEKKRQRRDQRKAAAKLEVDVANKDQKKIQESVTAVIDNPTNDKCTQETPVEEMLEALSLDKEQNNRSAKECPKCKEQSPDSFTHSRTCLYLTQKELNKSALEKLAIVLTEDSAKIDKSVLISKLFSSKVMAKELIATELTNLKHSNTKDIAPLCLAMSTFKLREELEQHIANKTLTERHVSLAPSVSFTLWQDCCRAYAKQMEEKGYIMHAATYLFSQGMQSEAIKLFLANEYYKEALVHARICLPATDPLIKTVINNWLEHLEGTGNFAAAALICVLDNEMLRGYSYLRKYRNCTPEIADLMDQIKRIGQLGGVLDGCAPNEPIHNGSTAEH
With B1, the binding result is “binds”.

B2: CG32786 (Drosophila Gemin4b), endogenous (protein, UniProt Q8IRT0 1-911)
chain: MITAEKHPLDNCQLFVQLKKIFHDNNEQAKCLKDMIYWSGNDEHIEKICDQVTDLLEEHDLIIQPPDTMDPFAMNQLRGLLVYLVLNTAHDYFLCKSQWSANVMHLCNQLPPIPLFLTIAIAVNCCLMEPLEEFLACGPRWLTIQYFEAFNEALSVINSDCVETLPLLSAALRAAGRAIVNCNLPAENKQLLRQIACMEHRHILDSKQRLHTLPRPSTRKIYLAKAMDHLIEVLLYTLNDPLKREKPNCFAVYSQITEDISDSNSSDPMPDLRHFAQILLDVLQRIFQLVSVDTYMYWHEMKSKSALYNCQELICRQTAELLKVLQSDKLLGEHPVCKQMQSFADAAKTLEQRVAEMRMGELLVFLDSGMATDEELLAGLDNLFSRFIAFGNDECVETMANHLIMLTKKHAQIILSFLGQVVESEMVVEDEGISVTEVNQGDDEDETSSNDDYEELLSLVLRPLFMQLNVEDKMEVLLLRDEQNVTQGFNFKAPDHRERRIRFFNQLDYNKRFPITKFLVLCFENARQTWIDFSHLGVTHTRFSKLFWHIAQSCPKHAAFHISACADNILVNEQLLQKPYALQFTLYLYGHRQILNGLYTSARQLCVSLKDGRCPYGEDELRQAQNRFLDACAYGLAKFIEPMNLPSLQLILKLLKQISLGESNLITRGTAELNALEKEHPKLENGDDAPAVKVAKHYTYLNASLPEWRLKHWKLISHVMKTIDALRWDLATFEDFRVDNLELAVWYWQDGLSHLTFLGTECRQRILNQVNSLKHKGFWLIYLKEDTLKDTRSFLKLLTQSSAQEANDLFNKLLKKRADCAVMGDLSDAVVKVNSESAFMAFRFLFREYLIAFRSHAKHNKTITKRQHWDHLMAVVAKAPFSIRNEIMKLASKAFAVRFGINIQEQQAAKC
On to B2, for which the binding entry is “binds”.

B3: CG32783 (Drosophila Gemin4c), endogenous (protein, UniProt Q8IRS9 1-911)
chain: MITAEKHPLDNCQLFVQLKKIFHDNNEQAKCLKDMIYWSGNDEHIEKICDQVTDLLEEHDLIIQPPDTMDPFAMNQLRGLLVYLVLNTAHDYFLCKSQWSANVMHLCNQLPPIPLFLTIAIAVNCCLMEPLEEFLACGPRWLTIQYFEAFNEALSVINSDCVETLPLLSAALRAAGRAIVNCNLPAENKQLLRQIACMEHRHILDSKQRLHTLPRPSTRKIYLAKAMDHLIEVLLYTLNDPLKREKPNCFAVYSQITEDISDSNSSDPMPDLRHFAQILLDVLRRIFQLVSVDTYMYWHEMKSKSALYNCQELICRQTAELLKVLQSDNMLGEHPVCKQMQSFADAAKTLEQRVAEMRMGELLVFLDSGMATDEELLAGLDNLFSRFIAFGNDECVETMANHLIMLTKKHAQIILSFLGQVVESEMVVEDEGISVTEVNQGDDEDETSSNDDYEELLSLVLRPLFMQLNVEDKMEVLLLRDEQNVTQGFNFKAPDHRERRIRFFNQLDYNKRFPITKFLVLCFENARQTWIDFSHLGVTHTRFSKLFWHIAQSCPKHAAFHISACADNILVNEQLLQKPYALQFTLYLYGHRQILNGLYTSARQLCVSLKDGRCPYGEDELRQAQNRFLDACAYGLAKFIEPMNLPSLQLILKLLKQISLGESNLITRGTAELNALEKEHPKLENGDDAPAVKVAKHYTYLNASLPEWRLKHWKLISHVMKTIDALRWDLATFEDFRVDNLELAVWYWQDGLSHLTFLGTECRQRILNQVNSLKHKGFWLIYLKEDTLKDTRSFLKLLTQSSAQEANDLFKKLLKKRADCAVMGDLSDAVVKVNSESAFMAFRFLFREYLIAFRSHAKHNKTITKRQHWDHLMAVVAKAPFSIRNEIMKLASKAFAVRFGINIQEQQAAKC
B3: the binding result is recorded as “binds”.

B4: Gemin3 (Drosophila) (protein, UniProt Q9V3C4 1-1028)
chain: MEREIAHSLAGGEERSSDVAPGQVKTFEELRLYRNLLNGLKRNNFVTPTKIQAAAIPMALAKMDLIIQSKSGTGKTLIYVIAVVQSFNPNINQPHAMIVVPTRELAIQVQDTFFHLCKSFRDFKCSAFIGGTDVAKDRKRMNESRVIIGTPGRLLHLYENRVFDVSKLRLLVLDEADQLYQTKSLQHTVSKLIEAMPKNRQIIACSATYDQNLDERLAKVMDKPMLISNSERATVLLGIRQFVYELPQQNNSVEEMRLKLQILGQIFNQLPYEQAIIFASSQMRADSYKNYLTASGIDCHLISGAMEQSERLHVFEGYRNFTMRILVATDLMARGVDSPHANLVINIDPPQDHVTYLHRIGRAGRFGSKGIAITFIASKKESQRFREMSKKIATAWSVLEFPKEPMPNEFNFWDFEKYNFDYYIKEENPLQEMPMPIKENRSKENVDASSVDLENLQKDQDGKRRDPDKLPVALENVETQKELELENLPESSHNNKNLRVKEKEIVRQGKLKETNSKAGGSKTNKTERRKKSNTPSKLQKQITEVQQTPEITVNKYYMQEDIQRTADGKEYHPVNGAGNHQVPSKSNQKPVEFISPELTPTLTPLELTQEPSPTTVTPPAPPANSINNKTYCLAAPTQTSSMTIQNMVISNTVDDASSISSDSMVVCGYHSDRSYDTYYATSDEEEIWNRLMSKQRRQLKSKRGHGKRRVILYKKVFPKLKANVKRKLKKRMSSSCRSKKAHHLRKRHVYKNISLLPHMNLCHLLQKFTNQERFLKRLHKYAKNQFIDNARVGFLLDKLYKSILEMYYNSAKERKKHFKEAMKESLKSIDNYESQESSESEEEEEEEKDLKNKLSVHVTNQMDIPPMPQAAVEIGSGSESDTEDSQEYGEGEEIIVDDEDDGSDGGPNSSSGFVESQESVSSGIDTSVYETESTGASGNNSSAFFISDDESDTESLTDSEAGSNVSATGSSSQRSSVASSTYESSDDDSVTVTNVSSMQNAQSLWLQTFNMQYQFIASHVAKNLQNYY
Consider B4, for which the binding result is “binds”.

B5: CG14164 (Hezron/Lsm12b) (protein, UniProt Q9VT67 1-186)
chain: MSSLAPCFTVGSIVRCKTCFGDNISGEVVAFDLGVKMLIMKCPSSNGGGDEQTTCNVTIVNLSLCMDIEIVKEAIPPAEVQQPEPIDLPMIRERYRYATEHRTLSCRSYHPNASPFGQALFRLLVKRFGDPAIIWQNKGDQVAINILRQVVIDAPYATENIRYLDWNPKLAICVQEVVQNFCSKQF
In the case of B5, the binding result was “no binding”.

B6: CG31950 (Sabbat/Naa38) (protein, UniProt Q8IPZ7 1-121)
chain: MTELSITGQQVMPPPACTPPEPFRITTNAPHQMNDASLTPGRRKLQKWLGRVLRIVITDGRVLVGFFNCTDRDANIVLSMCAEYLVEGQEPRLLGNVMVPGQHIVSLSIDEPDPQSSLLVQ
With B6, the binding result is on record as “no binding”.

B7: CG2941/Gaulos (Drosophila Gemin4a), endogenous (protein, UniProt Q9W4N9 1-911)
chain: MITAKKHPLDNCQLFVQLKKLFHDYNEKVQRLKDMIYWSGNDEHIAKICDQVTDLLVEHDLIIQPPDTMDPCAMNHLRGLLVYLVLNTAHDDIQCESQWSANVMHLCNQLPPIPLFLTIAIAVNCCLMEPLEEFLACGPRWLTIQYFEAFNEALSVINSDCVETLPLLSAALRAAGRAIVNCNLPAENKQLLRQIACMEHRHILDSKQRLHTLPRPSTRKIYLAKAMDHLIEVLLYTLNDPLKREKPNCFAVYSQITEDISDSNSSDPMPDLRHFAQILLDVLQRIFQLVSVDTYMYWHEMKSKSALYNCQELICRQTAELLKVLQSDKLLGEHPVCKQMQSFADAAKTLEQRVAEMRIGELLAFIDSGMATNEELLAGLDNLFSRFIAFGSDECLETMANHLIMLTKKHAQIILSFLGQVVESEMVVEDEGISVTEVNQGDDEDETSSNDDYEELLSLVLRPLFMQLNVEDKMEVLLLRDEQNVTQGFNFKAPDHRERRIRFFNQLDYNKRFPITEFLVLCFENARQTWIDFSHLGVTHTRFSKLFWHIAQSCPKHAAFHISACADNILVNEQLLQKPYALQFTLYLYGHRQILNGLYTSARQLCVSLKDGRCPYGEDELRQAQNRFLDACAYGLAKFIEPMNLPSLQLILKLLKQISLGESNLITRGTAELNALEKEHPKLENGDDAPAVKVAKHYTYLHASLPEWRLKHWKLISHVMKTIDALRWDLATFEDFRVDNLELAVWYWQDGLSHLTFLGTEFRQRILNQVSKLKHKDFWIIYLKEDTLKDTRSFLKLLTQSSAQEANDLFNKLLKKRADCAVMGDLSDAVVKVNSESAFMAFRFLFREYLIAFRSHAKHNKTITKRQHWDHLMAVVAKAPFSIRNEIMELASKAFAVRFGINIQEQQAAKC
In the case of B7, the binding result is given as “binds”.

B8: CG2371 (Valette/CommD10) (protein, UniProt Q9VYV9 1-238)
chain: MSINWIKITERAREGIKIINALPYETFTTVLFYTHRQMSPSVASASATSSTVGTSVTTTGRVDSSTEENPTSNTEPEYTLEELERLVGVPRQDFLLLIKTFSYILRRISTFIIKPSLLQRELREKLQLEDEAKIDAILRLWVRETTPIMNNLASKRYESNVIEDVAWKLNMEISSHCQQREKTPLAVLQMKTAVGEDINIEMTQPELMELYNQFESIQGELDAMLAMKTTGATAPGNQ
Consider B8, for which the binding entry is listed as “no binding”.
